Chains of the proteins cited; added tags and fusions are not shown.
UniProt A0R0B3: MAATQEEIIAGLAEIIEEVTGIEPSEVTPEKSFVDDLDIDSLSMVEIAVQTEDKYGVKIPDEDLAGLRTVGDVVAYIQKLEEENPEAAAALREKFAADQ

According to publication PMC12346298, “Structures of MmpL complexes reveal the assembly and mechanism of this family of transporters” (Science Advances, 2025):

Experiments:
[1] = target: mycobacterial membrane protein large 5 (MmpL5) transporter, M. smegmatis (M. smegmatis) (UniProt A0QS80); test: cryo-EM structure; particle class 2 (tripartite trimeric AcpM-MmpL5-MmpS5 complex) from the same LMNG-solubilized crude membrane sample; Build and Retrieve processing; 2.81 Å
[2] = target: mycobacterial membrane protein large 5 (MmpL5) transporter, M. smegmatis (M. smegmatis) (UniProt A0QS80); test: cryo-EM structure; particle class 3 (dipartite trimeric AcpM-MmpL5 complex) from the same LMNG-solubilized crude membrane sample; Build and Retrieve processing; 3.37 Å

## meromycolate extension acyl carrier protein M (AcpM), M. smegmatis (from UniProt A0R0B3 1-99)
[1]
  binding: binds
[2]
  binding: binds

These are yes or no findings as the source states them, for the method shown. Binding calls can cover weak binding; strength is not graded here.
